PMC3914973
No constants are given. Whether binding was seen depends on the method and setting. Binding seen in cells or lysates may run through a third protein. Some entries that bind do so weakly or less than the wild type. Blank lines part the entries; values can stand above or below the substance they belong to.

Chains of the proteins cited; added tags and fusions are not shown. Lines headed by an entry give the natural chain unless they say otherwise; changes in a name come on top.
UniProt Q9P1W9: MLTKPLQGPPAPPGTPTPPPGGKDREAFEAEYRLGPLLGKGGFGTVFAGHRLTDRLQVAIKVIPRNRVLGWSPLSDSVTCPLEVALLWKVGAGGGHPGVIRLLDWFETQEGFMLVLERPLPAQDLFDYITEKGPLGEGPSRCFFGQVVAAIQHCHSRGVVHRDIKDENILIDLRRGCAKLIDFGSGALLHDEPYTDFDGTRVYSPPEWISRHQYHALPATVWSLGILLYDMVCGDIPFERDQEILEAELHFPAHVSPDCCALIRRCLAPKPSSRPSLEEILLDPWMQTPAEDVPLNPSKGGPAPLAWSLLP
UniProt Q16665: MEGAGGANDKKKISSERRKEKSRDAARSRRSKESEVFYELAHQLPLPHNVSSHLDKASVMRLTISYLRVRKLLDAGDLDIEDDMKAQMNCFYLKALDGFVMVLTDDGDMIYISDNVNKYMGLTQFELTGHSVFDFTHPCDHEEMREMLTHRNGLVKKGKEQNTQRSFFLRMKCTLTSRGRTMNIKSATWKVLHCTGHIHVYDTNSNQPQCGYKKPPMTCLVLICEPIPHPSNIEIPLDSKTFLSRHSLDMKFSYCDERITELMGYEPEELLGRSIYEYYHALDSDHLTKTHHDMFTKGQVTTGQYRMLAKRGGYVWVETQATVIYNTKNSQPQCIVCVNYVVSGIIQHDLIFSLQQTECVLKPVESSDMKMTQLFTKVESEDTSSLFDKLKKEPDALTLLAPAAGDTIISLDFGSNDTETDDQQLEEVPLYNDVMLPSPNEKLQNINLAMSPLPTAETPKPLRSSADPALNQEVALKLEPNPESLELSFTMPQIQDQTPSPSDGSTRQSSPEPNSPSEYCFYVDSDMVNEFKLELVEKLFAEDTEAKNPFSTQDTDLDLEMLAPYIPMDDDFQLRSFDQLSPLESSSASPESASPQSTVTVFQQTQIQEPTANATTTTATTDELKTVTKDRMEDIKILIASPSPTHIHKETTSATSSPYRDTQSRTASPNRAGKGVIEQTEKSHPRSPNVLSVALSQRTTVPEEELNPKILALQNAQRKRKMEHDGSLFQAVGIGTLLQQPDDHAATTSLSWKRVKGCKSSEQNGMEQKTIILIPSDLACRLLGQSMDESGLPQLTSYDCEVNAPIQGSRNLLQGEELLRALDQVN
UniProt Q99814: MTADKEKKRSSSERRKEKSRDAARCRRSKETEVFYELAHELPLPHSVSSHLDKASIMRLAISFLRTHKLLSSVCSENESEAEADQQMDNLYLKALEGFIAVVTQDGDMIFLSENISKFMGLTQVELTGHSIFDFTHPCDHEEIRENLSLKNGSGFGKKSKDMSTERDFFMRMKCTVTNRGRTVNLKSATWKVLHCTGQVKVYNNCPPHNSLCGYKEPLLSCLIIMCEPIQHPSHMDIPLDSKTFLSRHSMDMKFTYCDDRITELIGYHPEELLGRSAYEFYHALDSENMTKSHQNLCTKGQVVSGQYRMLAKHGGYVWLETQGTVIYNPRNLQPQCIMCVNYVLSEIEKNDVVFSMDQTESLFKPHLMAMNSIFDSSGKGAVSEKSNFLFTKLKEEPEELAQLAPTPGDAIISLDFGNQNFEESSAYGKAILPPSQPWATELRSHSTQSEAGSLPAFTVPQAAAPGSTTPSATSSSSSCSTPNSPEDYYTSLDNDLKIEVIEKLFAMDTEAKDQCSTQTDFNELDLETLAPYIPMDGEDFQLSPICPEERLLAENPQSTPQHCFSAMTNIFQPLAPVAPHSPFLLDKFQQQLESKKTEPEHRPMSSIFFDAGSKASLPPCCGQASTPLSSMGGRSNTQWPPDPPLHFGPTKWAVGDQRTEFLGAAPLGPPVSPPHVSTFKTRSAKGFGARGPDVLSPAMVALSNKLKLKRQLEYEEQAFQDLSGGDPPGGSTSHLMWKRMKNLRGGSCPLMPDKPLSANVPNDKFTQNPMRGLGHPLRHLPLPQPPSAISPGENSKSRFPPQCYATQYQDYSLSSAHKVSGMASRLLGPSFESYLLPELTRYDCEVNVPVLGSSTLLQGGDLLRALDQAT

What was measured:
Flag-tagged PIM2 (human) [1] = target: Flag-tagged PIM2 (human) (UniProt Q9P1W9); experiment: co-IP; HEK293T cells co-transfected with Flag-tagged PIM2 and HA-tagged HIF-1α (575-826aa), 24 h, then hypoxia 24 h; the legend says IP with anti-HA antibody, immunoblot
Flag-tagged PIM2 (human) [2] = target: Flag-tagged PIM2 (human) (UniProt Q9P1W9); experiment: co-IP; HEK293T cells co-transfected with Flag-tagged PIM2 and GFP-tagged HIF-1α, 24 h, then hypoxia (1% O2) 24 h; reciprocal: IP with anti-Flag or anti-GFP antibody and protein A agarose overnight at 4°C, washed five times with RIPA lysis buffer, immunoblot
[3] = target: Endogenous HIF-1α (HepG2 cells) (human (endogenous in HepG2)) (UniProt Q16665); experiment: co-IP; endogenous proteins, HepG2 cells under hypoxia 24 h; IP with anti-HIF-1α or anti-HIF-2α antibody, immunoblot
[4] = target: Endogenous HIF-2α (HepG2 cells) (human (endogenous in HepG2)) (UniProt Q99814); experiment: as above
Flag-tagged PIM2 (human) [5] = target: Flag-tagged PIM2 (human) (UniProt Q9P1W9); experiment: co-IP; HEK293T cells transfected with Flag-tagged PIM2, 24 h, then hypoxia 24 h; IP with anti-Flag antibody, immunoblot for endogenous HIF-1α
GFP-tagged HIF-1α = GFP-tagged HIF-1α (UniProt Q16665); experiment: co-IP; HEK293T cells co-transfected with Flag-tagged PIM2 and GFP-tagged HIF-1α, 24 h, then hypoxia (1% O2) 24 h; reciprocal: IP with anti-Flag or anti-GFP antibody and protein A agarose overnight at 4°C, washed five times with RIPA lysis buffer, immunoblot

binding (Flag-tagged PIM2 (human) [1]): binds
Substance: HA-tagged HIF-1α transactivation domain (575–826aa) (from UniProt Q16665 575-826) (domain or fragment)

binding (Flag-tagged PIM2 (human) [5]): binds
Substance: Endogenous HIF-1α (HEK293T cells) (from UniProt Q16665 1-826)

Second part, the substance before the results:

Substance: GFP-tagged HIF-1α (from UniProt Q16665 1-826)
binding (Flag-tagged PIM2 (human) [2]): binds

Substance: Endogenous PIM2 (HepG2 cells) (from UniProt Q9P1W9 1-311) (enzyme)
binding [3]: binds | binding [4]: binds

Substance: Flag-tagged PIM2 (from UniProt Q9P1W9 1-311) (enzyme)
binding (GFP-tagged HIF-1α): binds
